Assay results from PubChem BioAssay AID504467 (National Center for Advancing Translational Sciences (NCATS), 2011).
Hit rate of the full screen: of about 330,000 compounds, about 7,700 (2.3%) were called active. The shares of active, inactive and inconclusive entries below differ from those in the screen. Calls come from the whole dose curve; as a rule, active = well fitted inhibition curve with a large enough effect; inconclusive = small, poorly fitted or top-dose-only effect, or effect the other way; inactive = flat fitted curve, though single readings scatter. Where the call is inconclusive, the potency comes from a doubtful curve fit.

Assay: qHTS screen for small molecules that inhibit ELG1-dependent DNA repair in human embryonic kidney (HEK293T) cells expressing luciferase-tagged ELG1; note: nearly all actives have a fitted effect of over 55% in size
Settings: HEK293T ELG1-luciferase reporter, luminescence, 16 h, DNA damage induced by 5-fluorouridine; activity change, negative = inhibition: at 46.1 µM (top of the series)
Procedure, shortened: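 Quantitative HTS, concentration-response format. 2,000 cells/well co-treated with 5-fluorouridine and compound, 16 hr in 5% CO2 at 37 °C; ONE-Glo luminescence read after 30 min.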
% is set by controls: 0 for no effect and ±100 for the full control effect; potency is the fitted concentration of half-maximal effect.

Compound	Potency	activity change, negative = inhibition
COc1ccc(CC(=O)Nc2ccccc2NC(=O)Cc2ccc(OC)cc2)cc1	inconclusive: 18.3 µM [inhibitor, partial curve, poor fit]	
CCOC(=O)c1c(C)[nH]c(C(=O)Nc2cc(OCC)c(N3CCOCC3)cc2OCC)c1C	active: 4.61 µM	
O=C(c1ccc(CS(=O)Cc2ccccc2Cl)o1)N1CCN(c2cccc(Cl)c2)CC1 (configuration not stated)	inconclusive: 29.1 µM [inhibitor, single point]	
N#CCCCSc1nnc(CSc2nc3ccccc3s2)n1-c1ccccc1	inconclusive: 18.4 µM [inhibitor, single point]	
COc1ccc2[nH]c(=O)c(CN(Cc3ccc(C)cc3)Cc3nnnn3CC3CCCO3)cc2c1 (configuration not stated)	inconclusive: 20.6 µM [inhibitor, single point]	
COc1ccc(N(Cc2ccco2)C(=O)c2ccccc2F)cc1OC		inactive: -29.2%
CSc1nc(N)nc2c1ncn2CC(=O)NCC1CCCO1 (configuration not stated)		inactive: 3.61%
COc1cccc(N(C(=O)c2cccs2)c2nc3ccccc3s2)c1	inconclusive: 20.6 µM [activator, partial curve]	
Cc1ccccc1N1CC(C(=O)N2CC(C)CC(C)C2)CC1=O (configuration not stated)	inconclusive: 0.13 µM [activator, partial curve, poor fit]	
O=C(O)C/C(=C\c1ccc2c(c1)OCO2)c1nc2ccccc2s1	inconclusive: 18.3 µM [activator, single point]	
CCN(CC)c1ccc(/C=N/NC(=O)OC(C)(C)C)cc1	inconclusive: 3.26 µM [activator, full curve]	
COC(=O)c1c(NC(=O)c2cccs2)sc2c1CCC(C)C2 (configuration not stated)	inconclusive: 16.4 µM [activator, partial curve]	
O=C(Nc1ncc2c(n1)CC(c1ccco1)CC2=O)c1ccco1 (configuration not stated)	inconclusive: 1.16 µM [inhibitor, single point]	
CC(C)Oc1ccc(S(=O)(=O)N2CCOCC2)cc1NC(=O)CCCSc1ccccc1	inconclusive: 20.6 µM [inhibitor, partial curve, poor fit]	
CN(C)/C=C/C(=O)c1ccccc1		inactive: 18%
COc1ccc(C2CC(=O)C(C(c3ccc(O)cc3)C3C(=O)CC(c4ccc(OC)cc4)CC3=O)C(=O)C2)cc1 (configuration not stated)	inconclusive: 6.51 µM [inhibitor, single point]	
NCCCCCc1nnc(SCC(=O)c2ccc(Cl)cc2)o1		inactive: 11%
Cc1ccc(OCC(=O)Nc2ccccc2C(N)=O)cc1	inconclusive: 35.5 µM [activator, single point]	
CCc1nn(CC(=O)N2CCN(c3ccc(F)cc3)CC2)c(=O)c2cc3occc3n12		inactive: 1.98%
O=C(Nc1ccc(F)c(S(=O)(=O)N2CCOCC2)c1)C1CCCCC1	inconclusive: 18.3 µM [inhibitor, single point]	
CCCCNC(=O)NC(C(=O)OC)C12CC3CC(CC(C3)C1)C2 (configuration not stated)	inconclusive: 29.1 µM [inhibitor, single point]	
CC(=O)c1ccc(OCCCN2CCCCC2)cc1	inconclusive: 29.1 µM [activator, single point]	
C=CCn1c(=S)[nH]c2ccccc2c1=O		inactive: -4.05%

2 of these compounds in another layout.

| Compound | Potency | activity change, negative = inhibition |
| --- | --- | --- |
| CCOC(=O)c1c(C)[nH]c(C(=O)Nc2cc(OCC)c(N3CCOCC3)cc2OCC)c1C | active: 4.61 µM |  |
| COC(=O)c1c(NC(=O)c2cccs2)sc2c1CCC(C)C2 (configuration not stated) | inconclusive: 16.4 µM [activator, partial curve] |  |

Further records.

Compound	Potency	activity change, negative = inhibition
CCN1C(=O)[C@@H]2[C@@H](c3ccc(-c4ccc(C(C)=O)cc4)c(OC)c3)N3CCC[C@@]3(C(=O)OC)[C@@H]2C1=O	inconclusive: 3.55 µM [inhibitor, partial curve, poor fit]	
COc1ccccc1N(C)S(=O)(=O)c1ccc(Cl)c(C(=O)Nc2cccc(C)n2)c1	inconclusive: 20.6 µM [inhibitor, single point]	
CC1(C)CCN2CCC(C)(C)c3c(O)ccc1c32	inconclusive: 29.1 µM [inhibitor, single point]	
O=C(NCc1nnnn1-c1ccc(F)cc1)c1ccc([N+](=O)[O-])o1	inconclusive: 10.3 µM [inhibitor, partial curve, poor fit]	
CC(=O)Nc1ccc(NC(=S)Nc2ccc(Br)cc2)cc1	inconclusive: 23.1 µM [inhibitor, partial curve, poor fit]	
c1ccc(Cn2ccc(-c3cnc(-c4ccccc4)s3)n2)cc1	inconclusive: 2.59 µM [activator, partial curve]	
COc1ccc(C(=O)NCC(=O)N/N=C(\C)c2ccco2)cc1OC	inconclusive: 4.61 µM [activator, partial curve, poor fit]	
CCOC(=O)N1CCN(C(=O)CC(C(=O)N2CCc3ccccc32)n2ccnc2)CC1 (configuration not stated)	inconclusive: 29.1 µM [activator, partial curve, poor fit]	
Cc1c(C(=O)OCC(=O)N(CCC#N)c2ccccc2)oc2c1ccc1ccccc12	inconclusive: 18.4 µM [inhibitor, single point]	
CCOC(=O)c1c(C)[nH]c(C)c1C(=O)CSc1ncccn1		inactive: -0.902%
COc1ccc2cc(-c3cc(C(=O)OCC(=O)NC4CCS(=O)(=O)C4)c4ccccc4n3)ccc2c1 (configuration not stated)	inconclusive: 1.64 µM [activator, full curve]	
CCOC(=O)Cn1c(CCC(=O)O)ccc1-c1ccc(F)cc1	inconclusive: 20.6 µM [activator, single point]	
CCn1nc(C(=O)NCC(c2cccs2)N2CCOCC2)c2ccccc2c1=O (configuration not stated)		inactive: -2.09%
CSc1ncccc1C(=O)OCc1ccccc1Cl	inconclusive: 9.2 µM [activator, partial curve, poor fit]	
O=C1C=C(c2ccc(F)cc2OCc2ccccc2)C[C@@H](c2ccc3c(c2)OCO3)C1	inconclusive: 29.1 µM [inhibitor, single point]	
CCOC(=O)c1oc2ccc(Br)cc2c1COC(=O)C1=COCCO1	inconclusive: 9.2 µM [activator, partial curve, poor fit]	
CC(C)CN1C(=O)c2ccc(NC(=O)c3ccccc3F)cc2C1=O	inconclusive: 14.6 µM [activator, partial curve]	
CCOc1ccc(C(=O)N[C@H](C(=O)NNC(=O)c2cccs2)C(C)C)cc1	inconclusive: 8.2 µM [activator, partial curve, poor fit]	
COC(=O)C(CC(=O)c1ccc(Br)cc1)n1cccn1 (configuration not stated)		inactive: -3.85%
Cc1cc(NC(=O)c2ccccc2F)ncc1NC(=O)c1cccs1	inconclusive: 29.1 µM [activator, single point]	
O=C(c1cc(-c2cccc(O)c2)on1)N1CCCCC1	inconclusive: 7.31 µM [activator, partial curve]	
CC(C)N(Cc1nc(-c2ccccc2)no1)C(=O)CN(C)S(=O)(=O)c1ccc(Br)cc1	inconclusive: 7.31 µM [inhibitor, partial curve, poor fit]	
Oc1ccccc1CNc1ccc(Br)cn1	inconclusive: 32.6 µM [inhibitor, single point]	

Compound	Potency	activity change, negative = inhibition
Cn1c(SCc2cccc([N+](=O)[O-])c2)nc2ccccc2c1=O	inconclusive: 35.5 µM [inhibitor, single point]	
O=C(COCc1cc(-c2ccco2)on1)NC1CCCCC1		inactive: 12.9%
COc1cc(Br)c(C(C)NC(=O)c2ccc(C)cc2)cc1OC (configuration not stated)		inactive: -26.2%
Cc1cc(N=Cc2c(O)n(-c3cccc(C(F)(F)F)c3)c(=O)c3ccccc23)no1	active: 9.2 µM	
CC1CCCN(Cc2c(C(=O)N3CCc4ccccc4C3)nc3ccc(Cl)cn23)C1 (configuration not stated)		inactive: -2.15%
COc1ccc(Cl)cc1C(=O)Nc1nnn(C)n1		inactive: 7.2%
Cc1ccccc1NCC(=O)N/N=C\c1ccc([N+](=O)[O-])s1	inconclusive: 29.1 µM [inhibitor, single point]	
CC(C)(C)c1cc(CN2CCCC(O)C2)c(O)c(C(C)(C)C)c1 (configuration not stated)		inactive: -11.5%
Cc1cc(NC(=O)c2ccc(Cl)cc2)ccc1NC(=O)c1ccccc1Cl		inactive: 4.59%
O=C(Nc1ccccn1)c1ccc(S(=O)(=O)c2ccc(Cl)cc2)cc1	inconclusive: 18.3 µM [inhibitor, single point]	
COc1ccc(C(=O)c2c3ccccc3[n+]([O-])n2CCCN)cc1	inconclusive: 8.91 µM [activator, single point]	
CC(C)(C)NC(=S)NCCc1ccccc1	inconclusive: 8.2 µM [activator, partial curve]	
Cc1nc2cc(NC(=O)COc3ccccc3C#N)ccc2n1-c1ccccc1	inconclusive: 16.4 µM [inhibitor, single point]	
O=C(Nc1ccccc1)c1ccc(-c2ccccc2)s1	inconclusive: 8.2 µM [activator, partial curve]	
Cc1nn(-c2cccc(Cl)c2)nc1C(=O)Nc1cccc(C(=O)NC2CC2)c1	inconclusive: 29.1 µM [inhibitor, single point]	
COc1ccccc1N1CCN(C(=O)COc2cccc3ccccc23)CC1	inconclusive: 29.1 µM [inhibitor, single point]	
CC(C)C(=O)Nc1ccc(-c2nc3ncccc3o2)cc1	inconclusive: 7.3 µM [activator, partial curve]	
c1ccc(-c2ccccc2OCCCCN2CCCCCC2)cc1	inconclusive: 29.1 µM [inhibitor, single point]	
Cc1ccc(NC(=O)CCc2nnc3ccc(N4CCC5(CC4)OCCO5)nn23)nc1	active: 5.8 µM	
COC(=O)C(C)Sc1nc2c(c(=O)[nH]c(=O)n2C)n1CCCc1ccccc1 (configuration not stated)	inconclusive: 1.03 µM [inhibitor, single point]	
COc1cccc2sc(N(CCN(C)C)C(=O)/C=C/c3cccs3)nc12	inconclusive: 18.3 µM [activator, single point]	

A draw from above in order of formula weight, high to low:
Compound	Potency	activity change, negative = inhibition
CCOc1ccc(C(=O)N[C@H](C(=O)NNC(=O)c2cccs2)C(C)C)cc1	inconclusive: 8.2 µM [activator, partial curve, poor fit]	
COc1ccc(C(=O)c2c3ccccc3[n+]([O-])n2CCCN)cc1	inconclusive: 8.91 µM [activator, single point]	
c1ccc(-c2ccccc2OCCCCN2CCCCCC2)cc1	inconclusive: 29.1 µM [inhibitor, single point]	
